PubChem BioAssay AID504804 | Drosophila RNAi Screening Center | 2011

Assay: 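dsRNAs that improve Kc cell survival under doxorubicin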 (primary screen)
System: Drosophila Kc cells
Reagents: long dsRNA against Drosophila genes, 0.5 µg dsRNA per well
Time to read-out: 96 h (48 h knock-down, then 48 h drug)
Treatment: doxorubicin 5 µg/ml for 48 h, added 48 h after dsRNA
Measurement: 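Luminescent ATP counts per replicate, not normalised, reflecting viable cells after 48 h dsRNA knock-down followed by 48 h of 5 µg/ml doxorubicin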
Scale: raw ATP luminescence: higher = more viable cells, protection from doxorubicin
Rule for the call: 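z-score of 2 or more over plate mean in both duplicates, retained only when retests and separate dsRNAs confirm the protection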
The deposit covers about 19,000 reagents; this is a random part of those that have a named target and a result. In the full data, 47 (0.25%) got an active call. 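Signals are raw, not normalised; exact z-scores behind calls not deposited; actives needed confirmation, so some wells reaching 2 SD are inactive.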 The numbers tell different reagents against one gene apart. A plus sign joins genes that one reagent is predicted to hit.

gene knocked down | reagent no. | SD above plate mean | raw ATP luminescence, replicate 1 | raw ATP luminescence, replicate 2 | Call
CG43347 (GeneID 31991) | 1 | – | 2.43e5 | 2.55e5 | inactive
CG43347 (GeneID 31991) | 2 | – | 3.66e5 | 3.83e5 | inactive
GatC + PolG2 | 1 | – | 73733 | 61777 | inactive
Cht11 (GeneID 31630) | 1 | – | 42390 | 43990 | inactive
CG8401 (GeneID 36770) | 1 | – | 53537 | 79030 | inactive
beta-PheRS (GeneID 42888) | 1 | – | 47777 | 43993 | inactive
CG31776 (GeneID 33568) | 1 | – | 27470 | 35600 | inactive
shot (GeneID 36542) | 1 | – | 1.02e5 | 1.02e5 | inactive
shot (GeneID 36542) | 2 | – | 95963 | 1.17e5 | inactive
shot (GeneID 36542) | 3 | – | 72563 | 57203 | inactive
CG15308 (GeneID 50415) | 1 | – | 3.73e5 | 3.66e5 | inactive
CG1090 (GeneID 40551) | 1 | – | 19433 | 17753 | inactive
CG11779 + CG5835 | 1 | – | 44980 | 54340 | inactive
fun (retired record) (GeneID 5657936) | 1 | – | 62643 | 24410 | inactive
Ufl1 (GeneID 40843) | 1 | – | 71520 | 22880 | inactive
cher (GeneID 42066) | 1 | – | 50713 | 45800 | inactive
NaPi-III (GeneID 39255) | 1 | – | 45710 | 43163 | inactive
NaPi-III (GeneID 39255) | 2 | – | 67387 | 45507 | inactive
CG13538 (GeneID 37667) | 1 | – | 71853 | 49713 | inactive
CG8960 (GeneID 38280) | 1 | – | 60343 | 84833 | inactive
CG17122 (GeneID 40226) | 1 | – | 73957 | 64557 | inactive
fat-spondin (GeneID 36919) | 1 | – | 65303 | 79030 | inactive
Octbeta2R (GeneID 41549) | 1 | – | 51747 | 58907 | inactive
Octbeta2R (GeneID 41549) | 2 | – | 54907 | 58560 | inactive
CR18275 + CR18166 + CG32817 | 1 | – | 2.31e5 | 2.14e5 | inactive
l(1)G0469 (GeneID 32371) | 1 | – | 4.13e5 | 3.35e5 | inactive
CG6495 (GeneID 34486) | 1 | – | 69403 | 56890 | inactive
CG14711 + Zaf1 | 1 | – | 65337 | 73967 | inactive
CG3770 (GeneID 37991) | 1 | – | 73677 | 61003 | inactive
Ir60e (GeneID 37917) | 1 | – | 46403 | 61813 | inactive
CG6013 (GeneID 42286) | 1 | – | 43283 | 45310 | inactive
CG2812 (GeneID 37801) | 1 | – | 52800 | 52637 | inactive
unc-45 (GeneID 44910) | 1 | – | 56317 | 58947 | inactive
pita (GeneID 37730) | 1 | – | 97507 | 1.03e5 | inactive
pita (GeneID 37730) | 2 | – | 61163 | 51653 | inactive
CG6565 (GeneID 34749) | 1 | – | 1.11e5 | 56283 | inactive
CG3287 (retired record) (GeneID 48441) | 1 | – | 49137 | 88647 | inactive
Paris (GeneID 33657) | 1 | – | 1.25e5 | 1.06e5 | inactive
rdx (GeneID 41704) | 1 | – | 35240 | 28140 | inactive
rdx (GeneID 41704) | 2 | – | 1.09e5 | 1.11e5 | inactive
CG32052 (GeneID 326184) | 1 | – | 71270 | 73870 | inactive
CG5787 (GeneID 34684) | 1 | – | 1.04e5 | 60793 | inactive
CG13096 (GeneID 34183) | 1 | – | 34960 | 64897 | inactive
Prestin (GeneID 39996) | 1 | – | 52583 | 50203 | inactive
Ufc1 (GeneID 36762) | 1 | – | 52290 | 52480 | inactive
CG5611 (GeneID 43318) | 1 | – | 26470 | 40060 | inactive
Wnt2 (GeneID 35975) | 1 | – | 89313 | 78377 | inactive
Wnt2 (GeneID 35975) | 2 | – | 44837 | 69053 | inactive
Sfp93F (GeneID 8673963) | 1 | – | 1.43e5 | 1.63e5 | inactive
Plap (GeneID 43978) | 1 | – | 1.05e5 | 68117 | inactive
CG6418 (GeneID 39218) | 1 | – | 46053 | 71143 | inactive
CG11635 + spaw | 1 | – | 47737 | 69443 | inactive
Lsp1alpha (GeneID 32199) | 1 | – | 2.86e5 | 1.77e5 | inactive
larp (GeneID 53567) | 1 | – | 50670 | 35790 | inactive
larp (GeneID 53567) | 2 | – | 69460 | 50640 | inactive
vilya (GeneID 31264) | 1 | – | 44620 | 45000 | inactive
REPTOR-BP (GeneID 34371) | 1 | – | 38473 | 51197 | inactive
CG16798 (GeneID 35308) | 1 | – | 43597 | 58097 | inactive
CG8788 (GeneID 35932) | 1 | – | 54213 | 79183 | inactive
CG9663 (GeneID 33541) | 1 | – | 1.04e5 | 79483 | inactive
CG18748 (GeneID 59144) | 1 | – | 52580 | 52673 | inactive
Chd1 (GeneID 33505) | 1 | – | 1.09e5 | 62897 | inactive
lncRNA:CR32368 (GeneID 317997) | 1 | – | 1.57e5 | 1.58e5 | inactive
Prp4k (GeneID 38032) | 1 | – | 52640 | 40077 | inactive
Idh3b (GeneID 42586) | 1 | at least 3 SD above plate mean | 73500 | 94860 | inactive
CG42523 (GeneID 8674082) | 1 | – | 2.63e5 | 2.46e5 | inactive
mRpL50 (GeneID 38796) | 1 | – | 34033 | 40590 | inactive
Polr2B (GeneID 41721) | 1 | – | 26960 | 20047 | inactive
CG18477 + CG31780 | 1 | – | 75637 | 80833 | inactive
Arp3 (GeneID 38898) | 1 | – | 49113 | 36380 | inactive
CG9300 (GeneID 40128) | 1 | – | 20283 | 26027 | inactive
JMJD7 (GeneID 39514) | 1 | – | 2.47e5 | 2.16e5 | inactive
Hen1 (GeneID 36301) | 1 | – | 60890 | 44893 | inactive
Spn38F (GeneID 49806) | 1 | – | 57747 | 48233 | inactive
Rpn9 (GeneID 42802) | 1 | – | 46967 | 35757 | inactive
Vav (GeneID 32920) | 1 | – | 3.34e5 | 3.23e5 | inactive
CG15550 (GeneID 43666) | 1 | – | 55970 | 36510 | inactive
CG10089 (GeneID 39517) | 1 | – | 55480 | 56913 | inactive
CG10089 (GeneID 39517) | 2 | – | 73130 | 67563 | inactive
strat (GeneID 34142) | 1 | – | 35580 | 64987 | inactive
Stat92E (GeneID 42428) | 1 | – | 53773 | 54237 | inactive
CG8369 (GeneID 50005) | 1 | – | 47057 | 49043 | inactive
pzg (GeneID 40351) | 1 | – | 29550 | 23773 | inactive
CG14275 (GeneID 34144) | 1 | – | 35800 | 66450 | inactive

An excerpt from above, showing only “raw ATP luminescence, replicate 1”:
Prestin (GeneID 39996)	52583
Ufc1 (GeneID 36762)	52290
CG5611 (GeneID 43318)	26470
Wnt2 (GeneID 35975) #1	89313
Wnt2 (GeneID 35975) #2	44837
Sfp93F (GeneID 8673963)	1.43e5
Plap (GeneID 43978)	1.05e5
CG6418 (GeneID 39218)	46053
CG11635 + spaw	47737
